This experiment concerns the target T1, FLAG-ATF3 (activating transcription factor 3) (UniProt P18847).
T1 sequence: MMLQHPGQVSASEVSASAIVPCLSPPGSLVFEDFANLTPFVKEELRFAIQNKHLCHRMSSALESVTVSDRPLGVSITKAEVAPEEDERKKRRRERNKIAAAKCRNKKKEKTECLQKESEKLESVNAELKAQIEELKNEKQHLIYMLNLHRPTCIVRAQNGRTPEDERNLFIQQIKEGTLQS
Description: co-IP.

No constants are given. Whether binding was seen depends on the method and setting. In cells and extracts the contact can be indirect. Some results given as binding are weak or reduced against the parent protein; the word gives no strength. Sequences can lack the tags named with a protein.

For p53 (from UniProt P04637 1-393), the binding result is listed as “binds”.

These data come from PMC3068935.
